Binding data for 3 molecules are collected here from article PMC6297782, “DNA-Mediated Interferon Signature Induction by SLE Serum Occurs in Monocytes Through Two Pathways: A Mechanism to Inhibit Both Pathways” (Frontiers in Immunology, 2018).

Amino acid sequences for entries named in this document (tags omitted). Residues count along the entry.
UniProt Q15109, residues 23-342: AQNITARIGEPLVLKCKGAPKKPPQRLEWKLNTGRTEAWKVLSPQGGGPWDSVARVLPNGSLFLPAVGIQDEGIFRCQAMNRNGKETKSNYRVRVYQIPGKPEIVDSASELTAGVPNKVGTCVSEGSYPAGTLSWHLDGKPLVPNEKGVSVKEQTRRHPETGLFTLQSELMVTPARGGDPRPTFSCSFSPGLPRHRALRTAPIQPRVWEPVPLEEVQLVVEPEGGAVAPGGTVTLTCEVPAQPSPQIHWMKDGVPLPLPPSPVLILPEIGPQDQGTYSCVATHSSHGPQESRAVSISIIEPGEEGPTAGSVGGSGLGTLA
UniProt P09429: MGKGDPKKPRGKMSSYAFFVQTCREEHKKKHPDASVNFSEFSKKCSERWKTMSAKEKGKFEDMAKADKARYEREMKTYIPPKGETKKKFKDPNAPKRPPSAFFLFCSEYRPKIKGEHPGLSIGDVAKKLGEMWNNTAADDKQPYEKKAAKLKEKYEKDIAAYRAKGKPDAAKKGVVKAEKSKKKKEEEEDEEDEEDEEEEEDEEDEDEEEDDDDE

Test [1] deals with Human recombinant sRAGE (human) (UniProt Q15109). Description: SPR; inhibition assay, Biacore T200; sRAGE amine-coupled to a CM5 chip (~500 RU); HMGB1 (0.5 μM) with or without DWEYS 50 to 1.6 μM injected at 30 μL/min for 60 s, 25°C; PBS + 0.05 Tween 20; both purified. On the technique in general: SPR reads the build-up and loss of mass on a sensor chip optically.
Test [2] concerns the target Recombinant HMGB1 (Calmodulin Binding Protein Epitope, Cbp tagged) (UniProt P09429). Put plainly: ELISA; HMGB1-coated plates, increasing concentrations of DWEYS; both purified.
Test [3] shares this target. Put plainly: SPR; Biacore T200; HMGB1 amine-coupled to a CM5 chip (~600 RU); peptide injected at 16-250 μM, 20 μL/min, 120 s, 25°C; 1:1 binding assumed; apparent KD; both purified.

No constants are given. Whether binding was seen depends on the method and setting. Some results given as binding are weak or reduced against the parent protein; the word gives no strength.

“Recombinant HMGB1 (Calmodulin Binding Protein Epitope, Cbp tagged) (from UniProt P09429 1-215)”: the binding entry in test [1] is reported as “binds”.

On to TATAT [control peptide (sequence: TATAT)], for which the binding entry in test [2] and in test [3] was “no binding” throughout.

B1: DWEYS peptide (peptide)
peptide: DWEYS
notes: the biotinylated form may have been used there; also called pentapeptide DWEYS; DNA mimetope; source: synthetic peptide (GenScript)
For the molecule B1, in test [2], the binding entry was “binds”.
